Measurements reported in PubChem BioAssay AID652272 (Drosophila RNAi Screening Center, 2013)

- Test: 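Finding fly genes that regulate Hedgehog signal transduction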 (primary screen)
- Cells: Drosophila clone 8 (Cl8) cells
- Knock-down reagent: long dsRNA against Drosophila genes
- Read-out: 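Firefly light from a Hedgehog-responsive ptc promoter reporter and Renilla reference light, both read on a plate reader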
- Reading the numbers: firefly Hh reporter signal: higher = more ptc reporter light; Renilla reference signal: higher = more Renilla control light
- Call rule: 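Hit when the z-score averaged over two replicates is under -2 or over +3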
- Calls: active = hit: reporter lowered or raised; inactive = not a hit
The screen tested about 21,000 reagents; this is an unselected part of those with a known target gene and a result. Over the whole deposit, 503 (2.4%) are marked active. 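Raw plate light values, not normalised; calls rest on replicate z-scores that were not deposited; hits include reporter decreases as well as increases.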 Unmarked entries are inactive. The numbers tell different reagents against one gene apart. A plus sign joins genes that one reagent is predicted to hit. Not stated in the record: the amount of reagent, the time to read-out.

The opening 6 records, ahead of the listing:
gene	dsRNA no.	firefly Hh reporter signal, replicate 1	firefly Hh reporter signal, replicate 2	firefly Hh reporter signal, replicate 3	Renilla reference signal, replicate 1	Renilla reference signal, replicate 2
Cpr47Ef	1	91475	68896		2274	5383
CG14277	1	1.13e5	47017		3124	5178
Sry-alpha	1	1.42e5	5.54e5	77956	5140	3130
Bcat	1	77772	2.40e5		2262	9417
Pvf3	1	1.65e5	66653		4011	6736
Pvf3	2	1.17e5	70833		3451	7210

The list itself, from the first entry:
gene	dsRNA no.	firefly Hh reporter signal, replicate 1	firefly Hh reporter signal, replicate 2	firefly Hh reporter signal, replicate 3	Renilla reference signal, replicate 1	Renilla reference signal, replicate 2
Cpr47Ef	1	91475	68896		2274	5383
CG14277	1	1.13e5	47017		3124	5178
Sry-alpha	1	1.42e5	5.54e5	77956	5140	3130
Bcat	1	77772	2.40e5		2262	9417
Pvf3	1	1.65e5	66653		4011	6736
Pvf3	2	1.17e5	70833		3451	7210
Pvf3	3	1.01e5	56716		2282	4788
Pvf3	4	1.19e5	71959		2717	6433
Sem1	1	80100	45152		2490	5101
step	1	82978	62192		2144	4800
step	2	1.20e5	80096		2672	7609
CG8850	1	1.23e5	56053		3543	4598
CG6495	1	43452	51995		2164	2229
Mst33A	1	1.16e5	83959		3378	6796
msps	1	1.53e5	70388		5645	2774
DJ-1alpha	1	1.09e5	78724		2581	5244
pzg	1	92237 (active)	59936		1942	1129
CG7860	1	82720	79648		2205	1673
CR44003 + CG44002	1	74080	64336		3456	3139
CR44003 + CG44002	2	1.02e5	52616		2619	5146
CG13223	1	86752	61436		2168	4752
CG33630	1	66437	87216		2375	2503
zip	1	1.00e5	6.32e5	98966	2072	38080
sut2	1	83058	55785		3456	2513
CG13018	1	63299	65846		1885	4017
CG4822	1	1.27e5	1.22e5		4807	3669
Mos	1	55194	46076		1698	3786
MsrA	1	1.12e5			5139	3341
CG42613	1	39434	1.22e5		9090	3834
CG42613	2	6.23e5	1.33e5		29223	4000
CG42613	3	1.27e5	80180		2903	3031
Usp1	1	98371	1.33e5		2291	3564
CG17029	1	1.49e5			1957	4196
CG13003	1	98331	1.97e5		2344	7127
CG18480	1	89192	75270		3732	3172
CG3713	1	81469	1.60e5		2145	5976
Sp7	1	78187	96352		2832	2721
CG17571	1	80960	1.76e5		2625	8112
CG17571	2	73718	45322		1941	5235
DCTN4-p62	1	68917	69453		2037	2122
Blimp-1	1	62752	54728		5664	4363
mRpS26	1	1.02e5			1426	13141
pnut	1	58195	54205		2647	2460
Gr5a	1	71843	1.60e5		2322	6829
CG31556 (retired record)	1	6.94e5	2.40e5	1.41e5	6428	5370
NKAIN	1	71218	1.21e5		2955	4313
CDK2AP1	1	1.37e5	1.06e5		3280	2700
Sec3	1	87837	45812		3252	2019
CG6638	1	43543	51312		5249	4198
CG4911	1	63936	39404		3145	1783
CG9676	1	74027	1.27e5		3321	6913
Coq3	1	55928	74805		2038	2875
crok	1	1.97e5	88912		4848	8354
CG34026	1	4.42e5	1.78e5		26028	3708
Fad2	1	18608 (active)	12876	29943	2941	2999
CG34404	1	84226	1.16e5		2139	2041
CG34404	2	1.18e5	84417		4499	1613
